Data as given in publication doi:10.1101/2024.03.15.585069.
Results are given in words; binding and its absence hold for the method and conditions named. In cells and extracts the contact can be indirect. Some entries that bind do so weakly or less than the wild type.

Legend:
Test in all cases: split reporter
[1] = molecular target: T1, nEYFP-CP2 (Arabidopsis thaliana) (UniProt P0DO23)
T1 sequence: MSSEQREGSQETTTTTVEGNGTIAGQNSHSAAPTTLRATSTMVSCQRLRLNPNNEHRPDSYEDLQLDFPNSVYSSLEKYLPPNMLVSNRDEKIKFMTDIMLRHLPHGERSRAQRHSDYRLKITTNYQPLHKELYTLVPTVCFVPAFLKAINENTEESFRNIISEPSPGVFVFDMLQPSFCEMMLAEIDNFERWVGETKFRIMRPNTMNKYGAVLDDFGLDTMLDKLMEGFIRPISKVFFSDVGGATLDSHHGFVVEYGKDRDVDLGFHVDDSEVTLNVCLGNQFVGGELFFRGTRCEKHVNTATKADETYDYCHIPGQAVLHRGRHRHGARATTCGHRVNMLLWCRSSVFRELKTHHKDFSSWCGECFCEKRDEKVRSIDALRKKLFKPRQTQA

nEYFP-UBP12 = molecular target: T2, nEYFP-UBP12 (UniProt Q9FPT1)
T2 sequence: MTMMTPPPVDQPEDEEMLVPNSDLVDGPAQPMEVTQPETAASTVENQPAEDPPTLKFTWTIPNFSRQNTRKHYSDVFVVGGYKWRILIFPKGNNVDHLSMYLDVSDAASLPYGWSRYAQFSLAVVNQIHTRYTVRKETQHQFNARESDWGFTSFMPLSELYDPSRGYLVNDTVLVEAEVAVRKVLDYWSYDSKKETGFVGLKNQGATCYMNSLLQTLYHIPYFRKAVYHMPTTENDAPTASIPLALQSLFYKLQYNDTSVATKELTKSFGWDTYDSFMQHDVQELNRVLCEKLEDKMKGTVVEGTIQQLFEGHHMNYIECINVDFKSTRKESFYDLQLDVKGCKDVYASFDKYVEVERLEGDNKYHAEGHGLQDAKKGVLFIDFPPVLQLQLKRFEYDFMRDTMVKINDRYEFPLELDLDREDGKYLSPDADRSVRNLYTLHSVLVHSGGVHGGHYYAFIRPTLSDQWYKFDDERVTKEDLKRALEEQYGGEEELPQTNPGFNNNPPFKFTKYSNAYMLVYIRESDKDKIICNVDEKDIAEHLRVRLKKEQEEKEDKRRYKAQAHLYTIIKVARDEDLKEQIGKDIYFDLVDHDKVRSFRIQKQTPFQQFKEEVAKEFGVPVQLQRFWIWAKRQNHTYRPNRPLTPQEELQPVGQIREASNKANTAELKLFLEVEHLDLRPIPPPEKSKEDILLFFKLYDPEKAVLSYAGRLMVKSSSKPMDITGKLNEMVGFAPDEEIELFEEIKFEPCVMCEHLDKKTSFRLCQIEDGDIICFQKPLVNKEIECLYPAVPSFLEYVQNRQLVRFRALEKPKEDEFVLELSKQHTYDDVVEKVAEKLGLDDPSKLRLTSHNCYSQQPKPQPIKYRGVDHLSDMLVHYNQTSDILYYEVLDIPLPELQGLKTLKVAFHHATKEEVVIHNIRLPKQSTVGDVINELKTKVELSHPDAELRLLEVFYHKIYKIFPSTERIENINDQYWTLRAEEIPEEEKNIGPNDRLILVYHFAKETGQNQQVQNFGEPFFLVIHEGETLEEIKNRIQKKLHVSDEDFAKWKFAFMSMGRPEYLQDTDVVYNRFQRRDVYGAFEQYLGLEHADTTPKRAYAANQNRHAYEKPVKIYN

nEYFP-UBP13 = molecular target: T3, nEYFP-UBP13 (UniProt Q84WU2)
T3 sequence: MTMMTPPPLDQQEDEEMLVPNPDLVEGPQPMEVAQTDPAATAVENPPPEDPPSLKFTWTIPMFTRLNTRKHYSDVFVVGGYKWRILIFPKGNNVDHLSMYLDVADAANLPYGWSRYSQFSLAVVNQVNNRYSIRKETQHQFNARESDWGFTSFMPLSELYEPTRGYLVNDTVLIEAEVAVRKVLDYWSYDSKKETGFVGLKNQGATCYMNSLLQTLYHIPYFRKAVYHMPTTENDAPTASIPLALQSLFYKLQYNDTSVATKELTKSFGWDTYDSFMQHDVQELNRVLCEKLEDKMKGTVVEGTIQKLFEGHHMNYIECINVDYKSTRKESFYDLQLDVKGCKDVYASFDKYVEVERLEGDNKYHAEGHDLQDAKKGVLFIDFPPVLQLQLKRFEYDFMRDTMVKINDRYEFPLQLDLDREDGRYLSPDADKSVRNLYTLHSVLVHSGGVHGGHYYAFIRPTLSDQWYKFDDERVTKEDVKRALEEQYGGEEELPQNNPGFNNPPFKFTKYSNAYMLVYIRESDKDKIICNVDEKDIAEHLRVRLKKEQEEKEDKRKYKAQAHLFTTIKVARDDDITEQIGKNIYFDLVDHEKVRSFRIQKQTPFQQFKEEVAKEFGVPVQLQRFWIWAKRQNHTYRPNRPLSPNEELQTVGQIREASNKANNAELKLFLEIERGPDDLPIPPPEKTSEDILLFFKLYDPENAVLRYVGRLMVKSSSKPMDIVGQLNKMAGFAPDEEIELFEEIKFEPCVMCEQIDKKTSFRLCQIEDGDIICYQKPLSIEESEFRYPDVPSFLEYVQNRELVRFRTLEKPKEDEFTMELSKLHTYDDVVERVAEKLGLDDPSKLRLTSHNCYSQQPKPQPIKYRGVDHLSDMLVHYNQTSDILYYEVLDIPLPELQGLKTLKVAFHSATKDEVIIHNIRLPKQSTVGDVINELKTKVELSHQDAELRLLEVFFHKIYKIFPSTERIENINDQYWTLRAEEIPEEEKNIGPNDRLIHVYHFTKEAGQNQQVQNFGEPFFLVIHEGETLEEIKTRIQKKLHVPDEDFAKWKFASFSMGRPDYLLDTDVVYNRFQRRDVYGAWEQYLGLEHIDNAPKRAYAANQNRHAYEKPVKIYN

Measured: binding

B1: cEYFP-LHP1 (protein, UniProt Q946J8 1-445)
chain: MKGASGAVKKKPQVLNEAGEAETAVETVGESRKISGDGGFGSDDGGGGGGGGSGESILREIGDDRPTEDGDEEEEEDEDEDDGGDEEDEEGEGEGGQEERPKLDEGFYEIEAIRRKRVRKGKVQYLIKWRGWPETANTWEPLENLQSIADVIDAFEGSLKPGKPGRKRKRKYAGPHSQMKKKQRLTSTSHDATEKSDSSTSLNNSSLPDIPDPLDLSGSSLLNRDVEAKNAYVSNQVEANSGSVGMARQVRLIDNEKEYDPTLNELRGPVNNSNGAGCSQGGGIGSEGDNVRPNGLLKVYPKELDKNSRFIGAKRRKSGSVKRFKQDGSTSNNHTAPTDQNLTPDLTTLDSFGRIARMGNEYPGVMENCNLSQKTKIEELDITKILKPMSFTASVSDNVQEVLVTFLALRSDGKEALVDNRFLKAHNPHLLIEFYEQHLKYNRTP
binds: all assays above
